# This is one part of the list. The main result of the screen is listed elsewhere. These columns were measured beside it and carry no call.
# Assay: Mycobacterium tuberculosis H37Rv growth inhibition, confirmatory dose response, cytotoxicity (AID 1332);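 on CC50: Vero cells exposed to compounds for 72 hours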;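 on IC50: bacteria incubated 7 days before adding Alamar blue readout reagent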
# Settings: M. tuberculosis H37Rv growth inhibition; CC50: measured here: Vero cell cytotoxicity; IC50: measured here: IC50 H37Rv replicates
Structure (SMILES),IC50,CC50
CCN(CC)CCc1nc(-c2ccccc2)no1,> 20 µg/mL,–
Cc1nccc2c1[nH]c1ccccc12,> 20 µg/mL,–
CN1CCN(CCCN2c3ccccc3Sc3ccc(Cl)cc32)CC1,5.26 µg/mL,> 6 µg/mL
O=c1oc2ccccc2c(O)c1Cc1c(O)c2ccccc2oc1=O,> 20 µg/mL,–
COc1c2occc2c(OC)c2c(=O)cc(C)oc12,> 20 µg/mL,–
c1cncc(C2=NCCC2)c1,> 20 µg/mL,–
Nc1cc(C(Cl)=C(Cl)Cl)c(S(N)(=O)=O)cc1S(N)(=O)=O,> 20 µg/mL,–
C[N+]1(C)CCC(OC(=O)C(O)(c2ccccc2)C2CCCC2)C1 (configuration not stated),> 20 µg/mL,–
Clc1ccc(CCC(Cn2ccnc2)Sc2c(Cl)cccc2Cl)cc1 (configuration not stated),1.14 µg/mL,> 6 µg/mL
N#Cc1ccc(C(c2ccc(C#N)cc2)n2cncn2)cc1,> 20 µg/mL,–
COc1c2occc2cc2ccc(=O)oc12,> 20 µg/mL,–
CN1CCN(C2=Nc3ccccc3Oc3ccc(Cl)cc32)CC1,> 20 µg/mL,–
Cc1c2ccncc2c(C)c2c1[nH]c1ccccc12,0.119 µg/mL,0.169 µg/mL
CC(=O)OCC(=O)[C@H]1CC[C@H]2[C@@H]3CC[C@H]4C[C@H](O)CC[C@]4(C)[C@H]3C(=O)C[C@]12C,> 20 µg/mL,–
C[C@@H]1C[C@H]2[C@@H]3C[C@H](F)C4=CC(=O)C=C[C@]4(C)[C@@]3(F)[C@@H](O)C[C@]2(C)[C@@]1(O)C(=O)CO,> 20 µg/mL,–
O=C(O)Cc1ccc(-c2ccccc2)cc1,> 20 µg/mL,–
Oc1cc(O)c2c(c1)O[C@H](c1ccc(O)c(O)c1)[C@@H](O)C2,> 20 µg/mL,–
CCN(CC)CCOC(=O)C1(C2CCCCC2)CCCCC1,> 20 µg/mL,–
Cc1ccc(C(=O)c2ccc(CC(=O)O)n2C)cc1,> 20 µg/mL,–
CC[N+](C)(CC)CCOC(=O)C1c2ccccc2Oc2ccccc21,> 20 µg/mL,–
NS(=O)(=O)c1cc(C2(O)NC(=O)c3ccccc32)ccc1Cl (configuration not stated),> 20 µg/mL,–
C=CC(N)CCC(=O)O (configuration not stated),> 20 µg/mL,–
Cc1ncc(C[n+]2csc(CCO)c2C)c(N)n1,> 20 µg/mL,–

Structure (SMILES),IC50,CC50
CCN[C@H]1CN(CCCOC)S(=O)(=O)c2sc(S(N)(=O)=O)cc21,> 20 µg/mL,–
CC[N+](C)(C)c1cccc(O)c1,> 20 µg/mL,–
OCCN1CCN(CC/C=C2/c3ccccc3Sc3ccc(C(F)(F)F)cc32)CC1,4.36 µg/mL,> 6 µg/mL
CCC(C)N1CCC2(CC1)N=c1c(c3c4c5c(C)c(O)c3c(O)c1=NC(=O)/C(C)=C/C=C/[C@H](C)[C@H](O)[C@@H](C)[C@@H](O)[C@@H](C)[C@H](OC(C)=O)[C@H](C)[C@@H](OC)/C=C/O[C@@](C)(O5)C4=O)N2 (some centres not stated),< 0.04 µg/mL,–
NC(=O)CN1CCCC1=O,> 20 µg/mL,–
COc1cc2c(cc1OC)C(C)NCC2 (configuration not stated),> 20 µg/mL,–
O=P1(NCCCl)OCCCN1CCCl (configuration not stated),> 20 µg/mL,–
OC(CCN1CCCCC1)(c1ccccc1)C1C[C@@H]2C=C[C@H]1C2 (some centres not stated),> 20 µg/mL,–
CC(=O)S[C@@H]1CC2=CC(=O)CC[C@]2(C)[C@H]2CC[C@@]3(C)[C@@H](CC[C@@]34CCC(=O)O4)[C@H]12,> 20 µg/mL,> 6 µg/mL
CC(Cc1cccc(C(F)(F)F)c1)NCCOC(=O)c1ccccc1 (configuration not stated),> 20 µg/mL,–
COc1ccc(-c2ccc(N)[n+](CCCC(=O)O)n2)cc1,> 20 µg/mL,–
NNCCc1ccccc1,> 20 µg/mL,–
CC(C)c1c(CN(C)C(C)Cc2ccccc2)n(C)n(-c2ccccc2)c1=O (configuration not stated),> 20 µg/mL,–
C=C(C)[C@@H]1CC[C@]2(C(=O)O)CC[C@]3(C)[C@H](CC[C@@H]4[C@@]5(C)CC[C@H](O)C(C)(C)[C@@H]5CC[C@]43C)[C@@H]12,> 20 µg/mL,> 6 µg/mL
O=C1NCCN1c1ncc([N+](=O)[O-])s1,> 20 µg/mL,–
Cc1cccc(C)c1NC1=NCCCS1,> 20 µg/mL,–
CNc1ncnc2c1ncn2[C@@H]1O[C@H](CO)[C@@H](O)[C@H]1O,0.36 µg/mL,–
c1ccc2c(c1)CCCC2C1=NCCN1 (configuration not stated),> 20 µg/mL,–
CCN(CC)CCCC(C)Nc1ccnc2cc(Cl)ccc12 (configuration not stated),> 20 µg/mL,–
CS(=O)(=O)c1ccc([C@@H](O)[C@@H](CF)NC(=O)C(Cl)Cl)cc1,1.18 µg/mL,> 6 µg/mL
Nc1c(O)cccc1C(=O)CC(N)C(=O)O (configuration not stated),> 20 µg/mL,–
C=C(CC)C(=O)c1ccc(OCC(=O)O)c(Cl)c1Cl,> 20 µg/mL,–
CC(C(=O)O)c1cccc(Oc2ccccc2)c1 (configuration not stated),> 20 µg/mL,–
CCn1cc(C(=O)O)c(=O)c2cc(F)c(N3CCNCC3)nc21,2.78 µg/mL,–

# Record cards, as listed above. Order of values: IC50	CC50
# C[C@@H]1C[C@H]2[C@@H]3C[C@H](F)C4=CC(=O)C=C[C@]4(C)[C@@]3(F)[C@@H](O)C[C@]2(C)[C@@]1(O)C(=O)CO as listed: > 20 µg/mL	–
# CC(Cc1cccc(C(F)(F)F)c1)NCCOC(=O)c1ccccc1 (configuration not stated) as listed: > 20 µg/mL	–
# COc1cc2c(cc1OC)C(C)NCC2 (configuration not stated) as listed: > 20 µg/mL	–
# Nc1c(O)cccc1C(=O)CC(N)C(=O)O (configuration not stated) as listed: > 20 µg/mL	–

# Additional entries.

Structure (SMILES),IC50,CC50
CC(C)(Oc1ccc(CCNC(=O)c2ccc(Cl)cc2)cc1)C(=O)O,> 20 µg/mL,–
OCCN1CCN(CCCN2c3ccccc3Sc3ccc(C(F)(F)F)cc32)CC1,4.2 µg/mL,> 6 µg/mL
c1ccc(CC2=NCCN2)cc1,> 20 µg/mL,–
COc1cc2c(c(OC)c1OC)-c1ccc(O)c(=O)cc1[C@@H](N)CC2,> 20 µg/mL,5.18 µg/mL
CN(C)c1ccc(O)c2c1CC1CC3[C@@H](N(C)C)C(=O)C(C(N)=O)=C(O)[C@]3(O)C(=O)C1=C2O (some centres not stated),0.524 µg/mL,> 6 µg/mL
O=C1c2ccccc2C(=O)C1c1ccccc1,> 20 µg/mL,–
Clc1ccc2c(c1)C(N1CCNCC1)=Nc1ccccc1O2,> 20 µg/mL,> 6 µg/mL
CC(C)N=C(N)/N=C(\N)Nc1ccc(Cl)cc1,> 20 µg/mL,> 6 µg/mL
O=C(O)CCc1nc(-c2ccccc2)c(-c2ccccc2)o1,> 20 µg/mL,–
CC[C@H]1OC(=O)[C@H](C)[C@@H](OC2C[C@@](C)(OC)[C@@H](O)[C@H](C)O2)[C@H](C)[C@@H](O[C@@H]2O[C@H](C)C[C@H](N(C)C)[C@H]2O)[C@](C)(O)C[C@@H](C)/C(=N\OCOCCOC)[C@H](C)[C@@H](O)[C@]1(C)O (some centres not stated),0.551 µg/mL,–
c1cncc([C@H]2CCCCN2)c1,> 20 µg/mL,–
Cc1ccc(N(CC2=NCCN2)c2cccc(O)c2)cc1,> 20 µg/mL,–
Cc1c(Cl)cccc1Nc1ccccc1C(=O)O,> 20 µg/mL,–
CO[C@H]1/C=C/O[C@@]2(C)Oc3c(C)c(O)c4c(O)c(c(/C=N/N5CCN(C)CC5)c(O)c4c3C2=O)NC(=O)/C(C)=C\C=C\[C@H](C)[C@H](O)[C@@H](C)[C@@H](O)[C@@H](C)[C@H](OC(C)=O)[C@@H]1C,< 0.04 µg/mL,–
C[C@]12CCC(=O)C=C1CC[C@@H]1[C@@H]2C(=O)C[C@@]2(C)[C@H]1CC[C@]2(O)C(=O)CO,> 20 µg/mL,–
COCCCC/C(=N\OCCN)c1ccc(C(F)(F)F)cc1,> 20 µg/mL,–
C[C@]12CC[C@H](O)C[C@H]1CC[C@@H]1[C@@H]2C[C@@H](O)[C@]2(C)[C@@H](C3=CC(=O)OC3)CC[C@]12O,> 20 µg/mL,0.968 µg/mL
CC(Cc1ccccc1)NCCC(c1ccccc1)c1ccccc1 (configuration not stated),2.96 µg/mL,> 6 µg/mL
CCC(C)[C@H]1O[C@]2(C=C[C@@H]1C)C[C@@H]1C[C@@H](C/C=C(\C)C(O[C@H]3C[C@H](OC)C(O[C@H]4C[C@H](OC)[C@@H](O)[C@H](C)O4)[C@H](C)O3)[C@@H](C)/C=C/C=C3\CO[C@@H]4[C@H](O)C(C)=C[C@@H](C(=O)O1)[C@]34O)O2 (some centres not stated),2.16 µg/mL,> 6 µg/mL
CC(=O)Oc1cc(C(F)(F)F)ccc1C(=O)O,> 20 µg/mL,–
NCCc1c[nH]c2ccc(O)cc12,> 20 µg/mL,–
CS(=O)(=O)c1ccc([C@@H](O)[C@@H](CO)NC(=O)C(Cl)Cl)cc1,1.15 µg/mL,–
CC(C)Cc1ccc([C@H](C)C(=O)O)cc1,> 20 µg/mL,–
O=c1[nH]c(=O)n(C2C[C@H](O)[C@@H](CO)O2)cc1C(F)(F)F (some centres not stated),> 20 µg/mL,> 6 µg/mL

Structure (SMILES),IC50,CC50
CN1CCN(CCCN2c3ccccc3Sc3ccc(S(=O)(=O)N(C)C)cc32)CC1,> 20 µg/mL,> 6 µg/mL
COc1c(O[C@@H]2O[C@H](CO)[C@@H](O)[C@H](O)[C@H]2O)cc2c(c1OC)-c1ccc(SC)c(=O)cc1C(NC(C)=O)CC2 (some centres not stated),> 20 µg/mL,–
CC(=O)O[C@]1(C(C)=O)CC[C@H]2[C@@H]3C=C(C)C4=CC(=O)CC[C@@H]4[C@H]3CC[C@@]21C,> 20 µg/mL,–
COc1ccc(C[C@H]2NC[C@H](O)[C@H]2OC(C)=O)cc1,> 20 µg/mL,0.026 µg/mL
C#C[C@]1(O)CC[C@H]2[C@@H]3CCC4=CC(=O)CC[C@@H]4[C@H]3CC[C@@]21C,> 20 µg/mL,–
COC(=O)C1=C(C)NC(C)=C(C(=O)OC)C1c1ccccc1[N+](=O)[O-],> 20 µg/mL,> 6 µg/mL
COc1ccc2c(c1)[nH]c1c(C)nccc12,> 20 µg/mL,5.95 µg/mL
CCN(CC)CCOC(=O)C1(c2ccc([N+](=O)[O-])cc2)CCCC1,> 20 µg/mL,–
Clc1ccccc1CN1CCc2sccc2C1,> 20 µg/mL,–
Nc1ccc(O)c(C(=O)O)c1,> 20 µg/mL,–
Cc1cc(NC(=O)C2=C(O)c3ccccc3S(=O)(=O)N2C)no1,> 20 µg/mL,–
Cc1cc(C(C)(C)CC(C)(C)C)ccc1OCCOCC[N+](C)(C)Cc1ccccc1,3.08 µg/mL,–
CO[C@@H]1[C@@H](O[C@@H]2O[C@H](C)[C@@H](O[C@H]3C[C@@](C)(O)[C@@H](O)[C@H](C)O3)[C@H](N(C)C)[C@H]2O)[C@@H](CC=O)C[C@@H](C)[C@@H](O[C@H]2CC[C@H](N(C)C)[C@@H](C)O2)/C=C/C=C/C[C@@H](C)OC(=O)C[C@H]1O,> 20 µg/mL,–
CO[C@@]1(NC(=O)C2SC(=C(C(N)=O)C(=O)O)S2)C(=O)N2C(C(=O)O)=C(CSc3nnnn3C)CS[C@@H]21 (some centres not stated),> 20 µg/mL,–
CN(C)CCCN1c2ccccc2CCc2ccc(Cl)cc21,4.91 µg/mL,> 6 µg/mL
CCN(CC)CCCC(C)Nc1c2ccc(Cl)cc2nc2ccc(OC)cc12 (configuration not stated),> 20 µg/mL,1.65 µg/mL
CCCCCCCCCCCCCCCC[N+](C)(C)CCN(Cc1ccc(OC)cc1)c1ncccn1,0.806 µg/mL,–
CCNC1(c2cccs2)CCCCC1=O (configuration not stated),> 20 µg/mL,–
CC(C)NCC(O)c1ccc(NS(C)(=O)=O)cc1 (configuration not stated),> 20 µg/mL,–
C#C[C@]1(O)CC[C@H]2[C@@H]3CCc4cc(OC)ccc4[C@H]3CC[C@@]21C,> 20 µg/mL,–
CCC1(c2cccc(O)c2)CCCCN(C)C1 (configuration not stated),> 20 µg/mL,–
CCN1C[C@]2(COC)CC[C@H](O)[C@]34C1[C@](O)([C@@H](OC)[C@H]23)[C@@]1(O)C[C@H](OC)[C@H]2C[C@@H]4[C@@H]1[C@H]2OC,> 20 µg/mL,–

# Source: PubChem BioAssay AID1332 (Southern Research Institute, 2008)
